From patent publication US20200277376A1 (SUZHOU STAINWEI BIOTECH, published 2020)
Results are given in words; binding and its absence hold for the method and conditions named. Binding calls can cover weak binding; strength is not graded here.

Tests used:
[1] = target: monkey PD-1 (monkey (Macaca fascicularis)); test: immunohistochemistry on monkey tissues (example 3)
[2] = target: monkey PD-1 (monkey (Macaca fascicularis)); test: immunohistochemistry on monkey tissue sections (figure legend)
[3] = target: monkey PD-1 (monkey (Macaca fascicularis)); test: immunohistochemistry on paraffin sections of monkey spleen and lympho-node

Measured: binding

B1: murine monoclonal antibody mAB21 (antibody, V domains shown)
VH: EVQLVESGGDFVKPGGSLKLSCAASGFTFSRYDMSWVRQTPDKRLEWVATISGGGRYTYYPDSVKGRFTISRDNAKNTLYLQMSSLKSEDTAIYFCTSPYGNYGMDYWGQGTSVTVSS
VL: DIVMTQSHKFMSTSVGDRVSITCKASQDAGSAVAWYQQKPGQSPKLLIYWASTRHTGVPGRFTGSGSGTDFTLTISNVQSEDLSDYFCQQYSSYPWTFGGGTKLEIK
binds: all assays above
